Library screening results

Protein sequences, listed by entry. Tags and fused reporters are not part of them.
UniProt E9BF75, entry or part of it: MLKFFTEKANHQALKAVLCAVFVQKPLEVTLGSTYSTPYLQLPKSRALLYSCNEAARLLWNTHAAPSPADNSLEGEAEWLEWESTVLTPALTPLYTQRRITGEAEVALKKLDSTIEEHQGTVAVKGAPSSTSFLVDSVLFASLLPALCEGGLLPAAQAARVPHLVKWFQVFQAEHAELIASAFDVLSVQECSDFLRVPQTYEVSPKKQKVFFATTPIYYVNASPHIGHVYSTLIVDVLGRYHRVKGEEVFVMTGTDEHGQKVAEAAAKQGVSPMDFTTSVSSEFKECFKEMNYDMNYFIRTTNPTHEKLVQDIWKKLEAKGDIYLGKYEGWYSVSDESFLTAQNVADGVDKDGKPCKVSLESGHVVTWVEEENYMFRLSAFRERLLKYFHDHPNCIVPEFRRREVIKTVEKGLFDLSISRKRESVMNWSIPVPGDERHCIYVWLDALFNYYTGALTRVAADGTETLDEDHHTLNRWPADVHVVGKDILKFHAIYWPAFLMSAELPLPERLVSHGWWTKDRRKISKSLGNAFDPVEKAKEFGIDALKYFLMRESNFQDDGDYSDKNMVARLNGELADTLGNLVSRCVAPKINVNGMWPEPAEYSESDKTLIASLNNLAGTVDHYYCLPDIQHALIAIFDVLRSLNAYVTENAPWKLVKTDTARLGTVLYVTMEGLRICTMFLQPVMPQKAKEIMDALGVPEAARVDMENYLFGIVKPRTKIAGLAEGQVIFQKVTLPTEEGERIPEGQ

Data taken from ChEMBL document CHEMBL3988442, “University of Dundee, Small-Polar-MMV Screening Library” (2021).

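Primary screen of methionyl-tRNA synthetase; the read-out is not stated. Target: Methionyl-tRNA synthetase (putative), Leishmania donovani (UniProt E9BF75). The test concentration is not given. Values are per cent inhibition. Size under these conditions: about 68,000 compounds, about 24 of them at 50% or above in at least one test.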

All values are in %. How 0% and 100% were set is not recorded. Most values in the screen are low, and negative values occur. Compounds were drawn at random from those tested, without regard to their results.

* CS(=O)(=O)N1CC2(CCN(C3CCCCC3)C2)Cc2ccccc21 (configuration not stated) | 20.57%
* Cc1nn(C)c2sc(C(=O)N3CCCC(n4ccnc4C)C3)cc12 (configuration not stated) | 18.31%
* NC(=O)CCCNC(=O)Cc1csc(Cc2ccccn2)n1 | 10.78%
* CC(=O)NCCOc1cccc(Br)c1 | 1.389%
* CCC(C(=O)N(C)Cc1cc(COC)[nH]n1)n1cccn1 (configuration not stated) | 10.08%
* Cc1nc(CC(=O)NCCNc2nccc(C(F)(F)F)n2)cs1 | 4.935%
* CC(=O)NC1CCCN(C(=O)Nc2cnc3c(cnn3C(C)C)c2)C1 (configuration not stated) | 10.48%
* O=C1CCOCCN1Cc1ccc(Cl)c(Cl)c1 | 10.05%
* Cc1ncsc1CNc1cc(N2CCCC2CO)ncn1 (configuration not stated) | 12.02%
* CO[C@H]1CN(S(=O)(=O)c2ccccc2F)C[C@@]12CCCO2 | 20.89%
* CC(Cn1cccn1)NC(=O)NCCCN1CCc2ccccc2C1 (configuration not stated) | 0%
* Cc1ccc(CNS(=O)(=O)CC2=NC(=O)n3cccc3C2=O)cc1 | 10.37%
* Cc1cc(C)n(CC2CCCCN2C(=O)c2ccsc2)n1 (configuration not stated) | 23.41%
* CC1c2ncc(Cn3cccn3)n2CCN1S(=O)(=O)C1CC1 (configuration not stated) | 16.42%
* Cc1ccccc1Oc1ncccc1CNS(C)(=O)=O | 5.512%
* CCOC(=O)C1CCCN(c2ccc(-c3nc(C)no3)cn2)C1 (configuration not stated) | 13.66%
* O=C(O)c1cc(S(=O)(=O)Nc2cc(F)ccc2F)cc2c1OCCO2 | 16.54%
* Cc1nc(N2CCOCC2)nc2c1CCN(c1nccs1)CC2 | 13.59%
* COC[C@H]1CC[C@@H]2[C@@H](CCN2Cc2ccco2)O1 | 11.04%
* COc1cccc(CCC2CCCN(Cc3ncc[nH]3)C2)c1 (configuration not stated) | 2.09%
* NC(=O)CCn1ccc(NC(=O)c2ccc(OCC3CC3)cc2)n1 | 17.06%

Some entries from above, unchanged:

compound	inhibition
Cc1nc(CC(=O)NCCNc2nccc(C(F)(F)F)n2)cs1	4.935
CCC(C(=O)N(C)Cc1cc(COC)[nH]n1)n1cccn1 (configuration not stated)	10.08